Our source for the survivor count and T/C values is PubChem BioAssay AID248 (DTP/NCI, 2004).

In this test the test system is L1210 leukemia ip in BDF1 mice, survival T/C. Briefly: NCI In Vivo Anticancer Drug Screen. Data for tumor model L1210 Leukemia (intraperitoneal) in B6D2F1 (BDF1) mice. The conditions noted are these: T/C endpoint: mean survival time, higher T/C = longer survival.
The mark [1] stands for this setting: dose: 400.0 mg/kg/injection, schedule: Q01DX009 (ip), vehicle: saline.
Setting [2] is: dose: 50.0 mg/kg/injection, schedule: Q01DX001 (ip), vehicle: saline.
Where [3] appears, read: dose: 100.0 mg/kg/injection, schedule: Q04DX003 (ip), vehicle: Klucel (hydroxypropylcellulose) (HPC).
Where [4] appears, read: dose: 200.0 mg/kg/injection, schedule: Q04DX003 (ip), vehicle: Klucel (hydroxypropylcellulose) (HPC).
Where [5] appears, read: dose: 400.0 mg/kg/injection, schedule: Q04DX003 (ip), vehicle: Klucel (hydroxypropylcellulose) (HPC).
Where [6] appears, read: dose: 400.0 mg/kg/injection, schedule: Q01DX001 (ip), vehicle: saline.
[7] abbreviates: dose: 400.0 mg/kg/injection, schedule: Q04DX002 (ip), vehicle: Klucel (hydroxypropylcellulose) (HPC).

The list does not hold the whole screen: it is rich in T/C values a quarter to a half above the control, in often repeated tests (any T/C) and in doses without a T/C. Other doses and runs of a compound stand elsewhere. T/C: endpoint of the treated group in % of that of the vehicle group. Some entries give survivors of the animals treated and no T/C: the source holds a T/C of zero for them, seemingly a mark for toxic or unscored doses. Some survivor counts are full or nearly so, which does not show that the dose was tolerated: the source hardly ever lists a survival T/C far under the control, and the zero likely stands for such cases as well. Counts of survivors are from the toxicity check (mostly the fifth day) where no day follows; animals may have died later. Schedule codes are those of the source, read here as Q, the interval in days (D) or hours (H), X, the number of doses. Some schedules carry Z or #; the key to these is not given. Where survival is the endpoint, this PubChem deposit counts one and a half times the control or more as active, and values a quarter to a half above the control carry no call in these data; other NCI protocols may use other cut-offs.

On to `N=C(N)CSSCC(=N)N`, for which the survivor count runs as follows: (dose: 100.0 mg/kg/injection, schedule: Q04DX003 (ip), vehicle: carboxymethylcellulose (CMC)) 0 of 6; (dose: 200.0 mg/kg/injection, schedule: Q04DX003 (ip), vehicle: carboxymethylcellulose (CMC)) 0 of 6; (dose: 400.0 mg/kg/injection, schedule: Q04DX003 (ip), vehicle: carboxymethylcellulose (CMC)) 0 of 6.

Turning to `COc1cc(C=Nc2cc(Cl)c(Cl)c(Cl)c2)ccc1N(CCCl)CCCl`, the T/C runs as follows: (dose: 44.0 mg/kg/injection, schedule: Q01DX001 (ip), vehicle: carboxymethylcellulose (CMC)) 127 % of control; (dose: 60.0 mg/kg/injection, schedule: Q01DX001 (ip), vehicle: carboxymethylcellulose (CMC)) 126 % of control; (dose: 66.0 mg/kg/injection, schedule: Q01DX001 (ip), vehicle: carboxymethylcellulose (CMC)) 130 % of control; (dose: 75.0 mg/kg/injection, schedule: Q01DX001 (ip), vehicle: carboxymethylcellulose (CMC)) 141 % of control; (dose: 100.0 mg/kg/injection, schedule: Q01DX001 (ip), vehicle: carboxymethylcellulose (CMC)) 136 % of control; (dose: 150.0 mg/kg/injection, schedule: Q01DX001 (ip), vehicle: carboxymethylcellulose (CMC), evaluated on day 30) 134 % of control. Moreover, the T/C (dose: 150.0 mg/kg/injection, schedule: Q01DX001 (ip), vehicle: carboxymethylcellulose (CMC), run until all animals had died) is 125 % of control. For the same compound, under “dose: 300.0 mg/kg/injection, schedule: Q01DX001 (ip), vehicle: carboxymethylcellulose (CMC)”, the survivor count is 5 of 6.

In the case of `CC(O)(Cc1ccccn1)Cc1ccccn1`, under “dose: 500.0 mg/kg/injection, schedule: Q01DX Z (ip), vehicle: saline”, the survivor count was 0 of 6.

Consider `CC(C)(C)SCC#CCSC(C)(C)C`, for which the survivor count (dose: 400.0 mg/kg/injection, schedule: Q04DX002 (ip), vehicle: saline with Tween-80) was 3 of 3.

On to `O=C(CSC1=NCCN1)c1ccccc1`, for which the survivor count (dose: 200.0 mg/kg/injection, schedule: Q01DX009 (ip), vehicle: saline with Tween-80) is 2 of 6 and the survivor count (dose: 400.0 mg/kg/injection, schedule: Q01DX009 (ip), vehicle: saline with Tween-80) is recorded as 0 of 6.

`O=C1OC(=C(c2ccccc2)c2ccccc2)c2ccccc21`: the survivor count under setting [1] was 6 of 6.

As for `Brc1nc(-c2ccccc2)c(-c2ccccc2)nc1Br`, the survivor count under setting [2] is 4 of 4.

Consider `c1ccc(CNc2cccc3c(NCc4ccccc4)cccc23)cc1`, for which the survivor count (dose: 200.0 mg/kg/injection, schedule: Q04DX003 (ip), vehicle: saline with Tween-80) is 6 of 6 and the survivor count (dose: 400.0 mg/kg/injection, schedule: Q04DX003 (ip), vehicle: saline with Tween-80) is reported as 6 of 6.

For the compound `CCOc1ccccc1/C=N\NC(=O)CCCC(=O)N/N=C/c1ccccc1OCC`, the survivor count is 4 of 4 under setting [2]; 4 of 4 (dose: 100.0 mg/kg/injection, schedule: Q01DX001 (ip), vehicle: saline); 4 of 4 (dose: 200.0 mg/kg/injection, schedule: Q01DX001 (ip), vehicle: saline).

Turning to `O=C(Nc1ccc(CCNC2=NCCN2)cc1)c1ccc(C(=O)Nc2ccc(CCNC3=NCCN3)cc2)cc1`, the T/C (dose: 2.0 mg/kg/injection, schedule: Q01DX Z (ip), vehicle: water) is 137 % of control. Further, the survivor count (dose: 30.0 mg/kg/injection, schedule: Q01DX Z (ip), vehicle: water) is on record as 0 of 6.

Consider `CN(C)N=Nc1ccc[n+]([O-])c1`, for which the survivor count (dose: 119.0 mg/kg/injection, schedule: Q01DX009 (ip), vehicle: saline) is given as 5 of 6; the survivor count (dose: 178.0 mg/kg/injection, schedule: Q01DX009 (ip), vehicle: saline) is recorded as 1 of 6; the survivor count (dose: 267.0 mg/kg/injection, schedule: Q01DX009 (ip), vehicle: saline) is listed as 0 of 6; the survivor count under setting [1] is 1 of 6.

`COc1ccc(C(=O)CBr)c(OC)c1C`: the survivor count runs as follows: (dose: 50.0 mg/kg/injection, schedule: Q01DX009 (ip), vehicle: Klucel (hydroxypropylcellulose) (HPC)) 5 of 6; under setting [3], 1 of 6; under setting [4], 0 of 6; under setting [5], 2 of 6.

For `CN(C)CCC(=O)c1ccc2cc(Br)c3ccccc3c2c1`, the survivor count (dose: 20.0 mg/kg/injection, schedule: Q01DX Z (ip), vehicle: methylcellulose (MC)) is listed as 5 of 6.

As to `CN1C2CCC1CC(OC(=O)c1ccccc1)C2` (configuration not stated), the survivor count (dose: 200.0 mg/kg/injection, schedule: Q04DX002 (ip), vehicle: saline with Tween-80) is on record as 3 of 6.

Regarding `COC1=C(N)C(=O)C(OC)=C(N)C1=O`, the survivor count under setting [6] is recorded as 0 of 4.

Consider `OC1C2CCN(CC2)C1C(c1ccccc1)c1ccc(F)cc1` (configuration not stated), for which the survivor count under setting [7] was 0 of 3.

Turning to `CC(=O)CC(=O)Nc1cccc(C)n1`, the survivor count runs as follows: under setting [6], 3 of 6; under setting [7], 1 of 3.

Regarding `N#C/C(=C\C=C\c1ccccc1)C(=O)O`, the survivor count is 1 of 6 under setting [4] and 0 of 6 under setting [5].

Turning to `N#Cc1nc2c(nc1C#N)-c1ccccc1C2=O`, the survivor count is, setting by setting: (dose: 25.0 mg/kg/injection, schedule: Q01DX009 (ip), vehicle: Klucel (hydroxypropylcellulose) (HPC)) 5 of 6; (dose: 50.0 mg/kg/injection, schedule: Q04DX003 (ip), vehicle: Klucel (hydroxypropylcellulose) (HPC)) 0 of 6; under setting [3], 1 of 6; under setting [4], 0 of 6; under setting [5], 0 of 6.

Turning to `C=C(C)C1CCC2CC/C(=N\Nc3ccccc3C(=O)OC)C=C2C1` (configuration not stated), the survivor count under setting [5] was 6 of 6.

As for `CC(C)(C)C1CCC([N+](=O)[O-])CC1` (configuration not stated), the survivor count is given as 3 of 6 (dose: 150.0 mg/kg/injection, schedule: Q01DX001 (ip), vehicle: other) and 0 of 6 (dose: 300.0 mg/kg/injection, schedule: Q01DX001 (ip), vehicle: other).

Take `O=C(OCCN1CCCCC1)C(c1ccccc1)C1(O)CCCC1` (configuration not stated): under “dose: 200.0 mg/kg/injection, schedule: Q01DX009 (ip), vehicle: saline”, the survivor count is given as 2 of 6.

Turning to `CC(=O)OC(=O)c1ccc2c(c1)C(=O)c1ccccc1C2=O`, the survivor count is 2 of 6 (dose: 100.0 mg/kg/injection, schedule: Q01DX001 (ip), vehicle: Klucel (hydroxypropylcellulose) (HPC)); 3 of 6 (dose: 200.0 mg/kg/injection, schedule: Q01DX001 (ip), vehicle: Klucel (hydroxypropylcellulose) (HPC)); 1 of 6 under setting [4]; 3 of 6 under setting [5].

For the compound `NC(=O)c1ccccc1Nc1ccc([N+](=O)[O-])cc1[N+](=O)[O-]`, the survivor count runs as follows: (dose: 70.0 mg/kg/injection, schedule: Q01DX Z (ip), vehicle: carboxymethylcellulose (CMC)) 6 of 6; (dose: 100.0 mg/kg/injection, schedule: Q01DX Z (ip), vehicle: carboxymethylcellulose (CMC)) 4 of 6.

`COC(=O)C12OCC34C(CC5C(C)=C(O)C(=O)CC5(C)C3C(O)C1O)OC(=O)C(OC(=O)/C=C(\C)C(C)(C)O)C24` (configuration not stated): the T/C (dose: 0.12 mg/kg/injection, schedule: Q01DX009 (ip), vehicle: saline with Tween-80) was 126 % of control and the T/C (dose: 0.25 mg/kg/injection, schedule: Q01DX009 (ip), vehicle: saline with Tween-80) was 129 % of control.

Consider `CCCP(=S)(CCC)Oc1ccc([N+](=O)[O-])cc1`, for which the survivor count (dose: 300.0 mg/kg/injection, schedule: Q01DX001 (ip), vehicle: saline) is reported as 0 of 6.

Regarding `CC(=O)OCC1OC(n2cnc3c(=S)nc[nH]c32)C(OC(C)=O)C1OC(C)=O` (configuration not stated), the T/C by setting is: (dose: 26.0 mg/kg/injection, schedule: Q01DX Z (ip), vehicle: carboxymethylcellulose (CMC)) 134 % of control; (dose: 60.0 mg/kg/injection, schedule: Q01DX Z (ip), vehicle: carboxymethylcellulose (CMC)) 142 % of control; (dose: 90.0 mg/kg/injection, schedule: Q01DX Z (ip), vehicle: carboxymethylcellulose (CMC)) 136 % of control.

Turning to `Cc1ccc(S(=O)(=O)[N-][n+]2ccccc2)cc1`, under “dose: 400.0 mg/kg/injection, schedule: Q01DX009 (ip), vehicle: Klucel (hydroxypropylcellulose) (HPC)”, the survivor count is on record as 1 of 6.
